The target of assay [1] is T1, Arabidopsis SKP1-like protein13 (ASK13), yeast two-hybrid fusion (Arabidopsis thaliana) (UniProt Q9M1X5).
T1 sequence: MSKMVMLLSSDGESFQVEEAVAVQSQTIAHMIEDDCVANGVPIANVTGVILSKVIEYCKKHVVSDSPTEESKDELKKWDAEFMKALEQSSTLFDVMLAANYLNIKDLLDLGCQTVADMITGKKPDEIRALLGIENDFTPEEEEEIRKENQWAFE
The experiment in a line: two-hybrid; one-to-one: pDEST-GBKT7 and pDEST-GADT7 constructs co-transformed into Y2H Gold; SD-Ade-His-Leu-Trp/X-alpha-Gal/aureobasidin agar.

By UniProt entry, the sequences of proteins in these tests, tags left out.
UniProt Q39255: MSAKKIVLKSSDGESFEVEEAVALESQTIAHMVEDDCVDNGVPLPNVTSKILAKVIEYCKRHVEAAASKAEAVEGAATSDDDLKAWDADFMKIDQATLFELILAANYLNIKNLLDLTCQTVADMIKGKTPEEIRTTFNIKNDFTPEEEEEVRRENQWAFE
UniProt Q9FHW7: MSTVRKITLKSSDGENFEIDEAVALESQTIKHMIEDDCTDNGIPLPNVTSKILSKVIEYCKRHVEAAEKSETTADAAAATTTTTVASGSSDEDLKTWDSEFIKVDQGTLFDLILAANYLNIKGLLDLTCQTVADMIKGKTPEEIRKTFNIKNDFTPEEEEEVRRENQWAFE

Assay [2] has as its target T2, ASK13, BiFC fusion with a half of EYFP (Arabidopsis thaliana) (UniProt Q9M1X5).
T2 sequence: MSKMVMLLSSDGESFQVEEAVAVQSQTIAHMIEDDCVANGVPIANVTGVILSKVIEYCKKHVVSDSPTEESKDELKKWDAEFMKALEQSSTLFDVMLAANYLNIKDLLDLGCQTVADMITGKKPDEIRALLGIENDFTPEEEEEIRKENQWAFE
Kind of assay: split reporter; BiFC: nYFP (1-174) and cYFP (175-end) fusions bombarded into onion epidermal cells, 24 h in darkness, confocal microscopy of the YFP signal.

The target of assay [3] is ASK10 (Arabidopsis SKP1-like 10), yeast two-hybrid fusion (Arabidopsis thaliana) (UniProt Q9LSX8). The experiment in a line: two-hybrid; one-to-one: pDEST-GBKT7 and pDEST-GADT7 constructs co-transformed into Y2H Gold; SD-Ade-His-Leu-Trp/X-alpha-Gal/aureobasidin agar.
For assay [4], the target named is T1, Arabidopsis SKP1-like protein13 (ASK13), yeast two-hybrid fusion (Arabidopsis thaliana). The experiment in a line: two-hybrid; library screen: pGBKT7BD-ASK13 (bait) in Y2H Gold mated with a normalized Arabidopsis Y2H cDNA library (prey); SD lacking histidine, tryptophan, leucine and adenine with X-alpha-Gal and aureobasidin A; retrieved plasmids retested with the empty bait vector and with ASK13.

Assay [5] addresses ASK1 (Arabidopsis SKP1-like 1), yeast two-hybrid fusion (Arabidopsis thaliana) (UniProt Q39255). The experiment in a line: two-hybrid; one-to-one: pDEST-GBKT7 and pDEST-GADT7 constructs co-transformed into Y2H Gold; SD-Ade-His-Leu-Trp/X-alpha-Gal/aureobasidin agar.
Assay [6] concerns the target T3, ASK7 (Arabidopsis SKP1-like 7), yeast two-hybrid fusion (Arabidopsis thaliana) (UniProt Q9LSY0).
T3 sequence: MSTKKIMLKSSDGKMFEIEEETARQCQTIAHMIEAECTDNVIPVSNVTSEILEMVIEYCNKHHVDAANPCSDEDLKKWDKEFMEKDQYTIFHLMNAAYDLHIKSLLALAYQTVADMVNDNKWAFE
The description is as above.

The target in assay [7] is ASK2 (Arabidopsis SKP1-like 2), yeast two-hybrid fusion (Arabidopsis thaliana) (UniProt Q9FHW7). The assay is described as above.

No constants are given. Whether binding was seen depends on the method and setting. For part of these data: Binding seen in cells or lysates may run through a third protein. Some results given as binding are weak or reduced against the parent protein; the word gives no strength. Where a sequence is shown, tags or fusion partners need not be part of it.

As to “ASK1 (Arabidopsis SKP1-like 1), yeast two-hybrid fusion (from UniProt Q39255 1-160)”, in assay [1], the binding entry is given as “binds”.

B1: Non-F-box protein At2g23070 (Protein kinase superfamily protein), BiFC fusion with the C-terminal half of YFP (protein, UniProt O64816 56-432)
chain: ASLYRQHLRNQQQQHQQQQQSRVKEKSETLAQKIGKSIRRAGAPSKARVYADVNVVRPKDYWDYESLAVQWGVQDDYEVVRKVGRGKYSEVFEGIHATDNEKCVIKILKPVKKKKIKREIKILQNLCGGPNIVKLLDIVRDQQSKTPSLIFEHVNNKDFKVLYPTLSDYDVRYYIFELLKALDFCHSRGIMHRDVKPHNVMIDHEQRKLRLIDWGLAEFYHPGKEYNVRVASRYFKGPELLVDLQDYDYSLDLWSLGCMFAGMIFRKEPFFYGHDNYDQLVKIAKVLGTDELNAYLNKYRIELDPNLTSLVGRHSRKPWTKFINSENQHLAVPEAVDFVDKLLRYDHQERPTAKEAMAHPYFYPIRNAESSRTPRSQ
With B1, the binding result in assay [2] was “binds”.

B2: Non-F-box protein At4g32530 (ATPase, F0/V0 complex, subunit C protein), BiFC fusion with the C-terminal half of YFP (protein, UniProt Q9SZY7 1-180)
chain: MSGVVALGHASSWGAALVRISPYTFSAIGIAISIGVSVLGAAWGIYITGSSLIGAAIEAPRITSKNLISVIFCEAVAIYGVIVAIILQTKLESVPSSKMYDAESLRAGYAIFASGIIVGFANLVCGLCVGIIGSSCALSDAQNSTLFVKILVIEIFGSALGLFGVIVGIIMSAQATWPTK
Take B2: the binding entry in assay [2] is “binds”.

B3: ASK10 (Arabidopsis SKP1-like 10), yeast two-hybrid fusion (protein, UniProt Q9LSX8 1-152)
chain: MSTKKIILKSSDGHSFEVEEEAACQCQTIAHMSEDDCTDNGIPLPEVTGKILEMVIEYCNKHHVDAANPCSDEDLKKWDKEFMEKYQSTIFDLIMAANYLNIKSLLDLACQTVADMIKDNTVEHTRKFFNIENDYTHEEEEAVRRENQWGFE
As to B3, the binding entry in assay [3] is listed as “binds”.

B4: Arabidopsis SKP1-like protein13 (ASK13), yeast two-hybrid fusion (protein, UniProt Q9M1X5 1-154)
chain: MSKMVMLLSSDGESFQVEEAVAVQSQTIAHMIEDDCVANGVPIANVTGVILSKVIEYCKKHVVSDSPTEESKDELKKWDAEFMKALEQSSTLFDVMLAANYLNIKDLLDLGCQTVADMITGKKPDEIRALLGIENDFTPEEEEEIRKENQWAFE
Take B4: the binding result in assay [4], in assay [5] and in assay [1] was “binds” each time.

B5: ASK13, BiFC fusion with a half of EYFP (protein, UniProt Q9M1X5 1-154)
chain: MSKMVMLLSSDGESFQVEEAVAVQSQTIAHMIEDDCVANGVPIANVTGVILSKVIEYCKKHVVSDSPTEESKDELKKWDAEFMKALEQSSTLFDVMLAANYLNIKDLLDLGCQTVADMITGKKPDEIRALLGIENDFTPEEEEEIRKENQWAFE
On to B5, for which the binding result in assay [2] is “binds”.

B6: F-box protein At1g08710, BiFC fusion with the C-terminal half of YFP (protein, UniProt Q9CAZ0 1-295)
chain: MSANEIPDELWRKILEIGVKSSTFSYKDLCCISISSRRLFRLSCDDSLWDLLLVHDFPNHIVSASSSSESPTKFIYMTRFEREKERKLAAHRRALLRKESEISEWGRRIRELEARLSDEAERLQSSSLQFSDLLKVRQASVALNVWQPEVVRGRQKQMVEQNAVPVEGRLRALEMEMKLCKQQIMGLNRALREVKHRYDIAIKELESMKYHPLRDYKSIRNGDQGSNGKTKKLKTSINYSGDQVSNGKRRKLKTSIDCKFMNISHFSSCSSVTEKFYSYSPKIIHEYIPENLLVL
On to B6, for which the binding result in assay [2] is given as “binds”.

B7: ASK7 (Arabidopsis SKP1-like 7), yeast two-hybrid fusion (protein, UniProt Q9LSY0 1-125)
chain: MSTKKIMLKSSDGKMFEIEEETARQCQTIAHMIEAECTDNVIPVSNVTSEILEMVIEYCNKHHVDAANPCSDEDLKKWDKEFMEKDQYTIFHLMNAAYDLHIKSLLALAYQTVADMVNDNKWAFE
For the molecule B7, the binding result in assay [6] and in assay [7] was “binds” throughout.

B8: F-box protein At5g45360, BiFC fusion with the C-terminal half of YFP (protein, UniProt Q9FHK0 1-316)
chain: MSVSDEEDECFARFLESEVSSVEDKEETKEPEAKRQRIEKGETKALEKDEDQKENGNKDKTDAKRIESGVFTNVPTELFRHILKFLSSEDLVSCSLVCKFLNFAAADESLWRRLYCIRWGLTLPSRKLRESAWKKLYIDRDEQDMIELVRTCPSDFKEYYVHMQAAKRSQAPLPSQMVDDRIILDNTVLEQVSLWKKSKGLTDKAVTGHICLGTKCSYHQIDDVFICKETGNVHVCDDNCKEVILSPEGDLMVCTISGVCSDTLLVQTEPDADGCYEEEAELEAEVFTDKSRLARAFELGYNCDDEQELERTLRFC
Turning to B8, the binding entry in assay [2] is recorded as “binds”.

(Values after article PMC6054272, “Arabidopsis SKP1-like protein13 (ASK13) positively regulates seed germination and seedling growth under abiotic stress” (Journal of Experimental Botany, 2018).)
